Test results as given in article PMC11727331.
These are yes or no findings as the source states them, for the method shown. In cells and extracts the contact can be indirect.

Target: SP1 (human (endogenous in FaDu and HK-1)), P08047
Assay: co-IP; 800 ug lysate of FaDu and HK-1 cells (50 mM Tris pH 7.6, 150 mM NaCl, 0.5% Triton-X100, 0.1% Nonidet P-40) incubated with 5 ug anti-SP1 or normal rabbit IgG overnight at 4 C, Dynabeads Protein G, immunoblot
Details: remark: other sources report otherwise

binding: no binding
B1: HDAC4, P56524 1-1084 (enzyme)
chain: MSSQSHPDGLSGRDQPVELLNPARVNHMPSTVDVATALPLQVAPSAVPMDLRLDHQFSLPVAEPALREQQLQQELLALKQKQQIQRQILIAEFQRQHEQLSRQHEAQLHEHIKQQQEMLAMKHQQELLEHQRKLERHRQEQELEKQHREQKLQQLKNKEKGKESAVASTEVKMKLQEFVLNKKKALAHRNLNHCISSDPRYWYGKTQHSSLDQSSPPQSGVSTSYNHPVLGMYDAKDDFPLRKTASEPNLKLRSRLKQKVAERRSSPLLRRKDGPVVTALKKRPLDVTDSACSSAPGSGPSSPNNSSGSVSAENGIAPAVPSIPAETSLAHRLVAREGSAAPLPLYTSPSLPNITLGLPATGPSAGTAGQQDAERLTLPALQQRLSLFPGTHLTPYLSTSPLERDGGAAHSPLLQHMVLLEQPPAQAPLVTGLGALPLHAQSLVGADRVSPSIHKLRQHRPLGRTQSAPLPQNAQALQHLVIQQQHQQFLEKHKQQFQQQQLQMNKIIPKPSEPARQPESHPEETEEELREHQALLDEPYLDRLPGQKEAHAQAGVQVKQEPIESDEEEAEPPREVEPGQRQPSEQELLFRQQALLLEQQRIHQLRNYQASMEAAGIPVSFGGHRPLSRAQSSPASATFPVSVQEPPTKPRFTTGLVYDTLMLKHQCTCGSSSSHPEHAGRIQSIWSRLQETGLRGKCECIRGRKATLEELQTVHSEAHTLLYGTNPLNRQKLDSKKLLGSLASVFVRLPCGGVGVDSDTIWNEVHSAGAARLAVGCVVELVFKVATGELKNGFAVVRPPGHHAEESTPMGFCYFNSVAVAAKLLQQRLSVSKILIVDWDVHHGNGTQQAFYSDPSVLYMSLHRYDDGNFFPGSGAPDEVGTGPGVGFNVNMAFTGGLDPPMGDAEYLAAFRTVVMPIASEFAPDVVLVSSGFDAVEGHPTPLGGYNLSARCFGYLTKQLMGLAGGRIVLALEGGHDLTAICDASEACVSALLGNELDPLPEKVLQQRPNANAVRSMEKVMEIHSKYWRCLQRTTSTAGRSLIEAQTCENEEAETVTAMASLSVGVKPAEKRPDEEPMEEEPPL
